# No constants are given. Whether binding was seen depends on the method and setting. Sequences can lack the tags named with a protein.
# B1: MYC-tagged UDP-glucose pyrophosphorylase (UGP-MYC) (enzyme, UniProt D3HTY9 1-485)
# chain: MPLNPPSAFSGAALACLEKMQASGVEEKCIHIFLIQHALVRKGETGYIPEKSISPVESLPFLQGIETKGENTALLRQAVVLKLNGGLGTGMGLNGPKSLLQVKNGQTFLDFTALQLEHFRQVRNCNVPFMLMNSFSTSGETKNFLRKYPTLYEVFDSDIELMQNRVPKIRQDNFFPVTYEADPTCEWVPPGHGDVYTVLYSSGKLDYLLGKGYRYMFISNGDNLGATLDVRLLDYMHEKQLGFLMEVCRRTESDKKGGHLAYKDVIDETTGQTRRRFVLRESAQCPKEDEDSFQNIAKHCFFNTNNIWINLMELKKMMDEQLGVLRLPVMRNPKTVNPQDSQSTKVYQLEVAMGAAISLFDRSEAVVVPRERFAPVKTCSDLLALRSDAYQVTEDQRLVLCEERNGKPPAIDLDGEHYKMIDGFEKLVKGGVPSLRQCTSLTVRGLVEFGADVSVRGNVVIKNLKEEPLIIGSGRVLDNEVVVVE
# Target: MYC-tagged UDP-glucose pyrophosphorylase (UGP-MYC) (Trypanosoma brucei) (UniProt D3HTY9)
# Experiment: native gel or EMSA; BN-PAGE (3 to 12% Bis-Tris) of supernatants of UGP-MYC.i cells treated with 0 or 0.16 mg digitonin per mg protein; Western blot with anti-MYC
binder,measurement,value
B1,binding,no binding

# From paper PMC8262884
